The values below come from paper PMC12404744.

By UniProt entry, the sequences of proteins in these tests, tags left out.
UniProt P49792: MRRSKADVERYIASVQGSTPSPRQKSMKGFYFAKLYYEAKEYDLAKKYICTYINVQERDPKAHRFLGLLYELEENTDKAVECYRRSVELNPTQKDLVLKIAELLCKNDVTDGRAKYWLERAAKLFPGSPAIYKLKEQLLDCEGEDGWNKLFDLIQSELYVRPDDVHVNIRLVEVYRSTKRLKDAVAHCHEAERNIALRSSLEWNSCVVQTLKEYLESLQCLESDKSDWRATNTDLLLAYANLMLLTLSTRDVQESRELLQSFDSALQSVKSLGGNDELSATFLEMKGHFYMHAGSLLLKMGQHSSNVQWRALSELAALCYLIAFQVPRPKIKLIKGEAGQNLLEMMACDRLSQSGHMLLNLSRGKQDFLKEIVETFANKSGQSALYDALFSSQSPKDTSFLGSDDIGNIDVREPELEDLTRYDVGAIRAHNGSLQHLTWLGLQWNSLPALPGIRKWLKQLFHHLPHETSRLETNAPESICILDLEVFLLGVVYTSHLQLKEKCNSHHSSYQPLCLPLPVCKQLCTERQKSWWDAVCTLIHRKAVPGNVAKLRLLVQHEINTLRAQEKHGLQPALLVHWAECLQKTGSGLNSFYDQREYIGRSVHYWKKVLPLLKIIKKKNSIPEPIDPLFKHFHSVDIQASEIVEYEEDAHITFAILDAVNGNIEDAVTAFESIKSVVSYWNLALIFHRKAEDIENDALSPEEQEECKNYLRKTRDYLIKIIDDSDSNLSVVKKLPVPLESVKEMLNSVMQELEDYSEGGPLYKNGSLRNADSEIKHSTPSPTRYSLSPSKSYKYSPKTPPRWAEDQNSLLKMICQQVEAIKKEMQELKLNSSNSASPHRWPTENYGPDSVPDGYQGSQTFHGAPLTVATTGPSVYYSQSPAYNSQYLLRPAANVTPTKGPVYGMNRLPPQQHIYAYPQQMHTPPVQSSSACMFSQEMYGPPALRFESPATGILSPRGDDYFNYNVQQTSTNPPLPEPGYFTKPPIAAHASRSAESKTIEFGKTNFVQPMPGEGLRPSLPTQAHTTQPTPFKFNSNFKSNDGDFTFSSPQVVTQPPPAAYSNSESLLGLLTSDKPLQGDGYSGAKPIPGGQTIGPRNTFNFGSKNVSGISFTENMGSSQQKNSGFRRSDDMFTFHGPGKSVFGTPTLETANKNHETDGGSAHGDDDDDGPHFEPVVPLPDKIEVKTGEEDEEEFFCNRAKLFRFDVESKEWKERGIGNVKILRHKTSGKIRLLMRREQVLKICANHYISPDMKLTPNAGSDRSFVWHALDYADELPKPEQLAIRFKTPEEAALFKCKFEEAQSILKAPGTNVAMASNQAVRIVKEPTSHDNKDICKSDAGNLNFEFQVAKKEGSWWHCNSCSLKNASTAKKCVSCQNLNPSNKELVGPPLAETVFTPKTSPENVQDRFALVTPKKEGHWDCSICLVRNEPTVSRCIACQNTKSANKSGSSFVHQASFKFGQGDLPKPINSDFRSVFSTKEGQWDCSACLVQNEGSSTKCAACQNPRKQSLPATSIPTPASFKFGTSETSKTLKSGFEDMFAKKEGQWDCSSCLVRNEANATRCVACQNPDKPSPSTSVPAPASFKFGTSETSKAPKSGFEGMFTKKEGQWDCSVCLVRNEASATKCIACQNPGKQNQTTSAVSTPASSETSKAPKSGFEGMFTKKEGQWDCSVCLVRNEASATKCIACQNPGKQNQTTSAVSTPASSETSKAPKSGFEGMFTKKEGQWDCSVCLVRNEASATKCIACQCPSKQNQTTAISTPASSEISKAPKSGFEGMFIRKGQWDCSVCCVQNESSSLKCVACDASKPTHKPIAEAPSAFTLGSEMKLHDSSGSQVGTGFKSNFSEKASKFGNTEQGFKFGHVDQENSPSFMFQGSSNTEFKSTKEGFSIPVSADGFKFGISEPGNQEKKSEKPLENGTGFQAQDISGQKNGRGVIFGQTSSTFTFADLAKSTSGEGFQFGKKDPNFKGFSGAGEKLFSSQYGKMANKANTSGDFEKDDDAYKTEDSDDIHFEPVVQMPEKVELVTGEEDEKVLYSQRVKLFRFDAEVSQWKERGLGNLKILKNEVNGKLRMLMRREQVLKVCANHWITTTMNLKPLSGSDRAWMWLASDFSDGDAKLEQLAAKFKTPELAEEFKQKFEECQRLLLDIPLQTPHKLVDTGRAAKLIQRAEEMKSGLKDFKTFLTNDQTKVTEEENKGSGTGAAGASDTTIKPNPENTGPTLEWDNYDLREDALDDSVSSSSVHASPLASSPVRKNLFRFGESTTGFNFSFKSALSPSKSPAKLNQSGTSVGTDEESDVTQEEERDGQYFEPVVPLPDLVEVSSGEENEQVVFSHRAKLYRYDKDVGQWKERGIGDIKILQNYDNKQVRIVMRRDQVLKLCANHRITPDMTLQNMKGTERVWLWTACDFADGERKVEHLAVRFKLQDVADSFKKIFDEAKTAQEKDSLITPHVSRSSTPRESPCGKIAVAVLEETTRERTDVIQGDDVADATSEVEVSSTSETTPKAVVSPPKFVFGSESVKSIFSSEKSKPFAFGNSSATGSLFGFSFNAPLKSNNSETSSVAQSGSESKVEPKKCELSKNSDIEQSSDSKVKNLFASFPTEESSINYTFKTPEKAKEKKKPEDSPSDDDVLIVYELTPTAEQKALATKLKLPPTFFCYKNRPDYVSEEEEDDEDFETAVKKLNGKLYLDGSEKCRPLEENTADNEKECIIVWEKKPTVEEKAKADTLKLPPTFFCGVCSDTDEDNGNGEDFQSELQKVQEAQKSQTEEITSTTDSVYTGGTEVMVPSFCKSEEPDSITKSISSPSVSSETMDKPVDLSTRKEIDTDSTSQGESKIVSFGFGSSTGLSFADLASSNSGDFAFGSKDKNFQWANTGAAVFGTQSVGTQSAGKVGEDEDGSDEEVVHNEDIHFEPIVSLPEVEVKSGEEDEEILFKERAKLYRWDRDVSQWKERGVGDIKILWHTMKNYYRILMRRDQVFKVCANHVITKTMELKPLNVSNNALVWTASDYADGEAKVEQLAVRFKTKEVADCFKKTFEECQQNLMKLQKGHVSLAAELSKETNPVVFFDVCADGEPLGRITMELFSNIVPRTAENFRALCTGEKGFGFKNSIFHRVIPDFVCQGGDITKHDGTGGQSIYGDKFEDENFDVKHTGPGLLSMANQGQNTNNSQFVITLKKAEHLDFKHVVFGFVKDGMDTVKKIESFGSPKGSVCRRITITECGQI

In this experiment the target is T1, FLAG-tagged WT nemo-like kinase (FLAG-NLK-WT) (UniProt Q9UBE8).
T1 sequence: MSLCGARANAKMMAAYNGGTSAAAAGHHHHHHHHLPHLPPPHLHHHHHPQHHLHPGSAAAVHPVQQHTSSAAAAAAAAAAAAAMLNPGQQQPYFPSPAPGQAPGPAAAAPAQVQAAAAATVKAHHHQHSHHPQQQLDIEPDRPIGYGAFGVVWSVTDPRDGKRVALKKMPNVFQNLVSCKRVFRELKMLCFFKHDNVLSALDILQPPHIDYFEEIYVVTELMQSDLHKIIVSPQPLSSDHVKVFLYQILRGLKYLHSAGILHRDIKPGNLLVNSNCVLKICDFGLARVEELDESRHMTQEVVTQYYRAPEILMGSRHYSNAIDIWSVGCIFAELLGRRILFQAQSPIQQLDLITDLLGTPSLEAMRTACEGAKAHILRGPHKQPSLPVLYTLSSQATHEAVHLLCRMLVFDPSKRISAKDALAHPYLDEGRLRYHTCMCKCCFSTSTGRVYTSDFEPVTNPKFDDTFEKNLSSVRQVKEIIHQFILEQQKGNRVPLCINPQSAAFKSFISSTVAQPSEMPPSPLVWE
In words: co-IP; HEK293T cells transfected with empty vector or FLAG-NLK-WT, 48 h; lysis in PBS with 1 mM CaCl2, 0.5 mM MgCl2, 1% Triton X-100; 2 mg lysate with 1 ug of the indicated antibodies overnight at 4°C, protein G beads, 5 washes; Western blot. Background: A western blot detects proteins with antibodies after separation by electrophoresis.

These are yes or no findings as the source states them, for the method shown. Binding seen in cells or lysates may run through a third protein. Some binding calls cover weakened binding; strength is not graded here. Tags and fused reporters may be left off the sequences shown.

Consider RanBP2 (from UniProt P49792 1-3224), for which the binding result is listed as “binds”.
